{"sequences": {"note": "Sequences of proteins named here, by UniProt entry; tags and fusion partners are left off.", "UniProt P0DTC4": "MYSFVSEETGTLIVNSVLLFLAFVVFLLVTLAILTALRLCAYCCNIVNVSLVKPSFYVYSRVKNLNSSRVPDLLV"}, "source": "paper PMC10990277", "experiment_in_all_cases": "proximity labelling", "key": {"[1]": {"target": "E-HA/TurboID^Site3 (SARS-CoV-2) (UniProt P0DTC4)"}, "[2]": {"target": "E-HA/TurboID^Site3 (SARS-CoV-2), P0DTC4", "details": "remark: other sources report otherwise"}, "[3]": {"target": "E-HA/TurboID^Site4 (SARS-CoV-2), P0DTC4", "details": "remark: other sources report otherwise"}}, "note": "No constants are given. Whether binding was seen depends on the method and setting. In cells and extracts the contact can be indirect. Here binding means that the protein was enriched with, or labelled near, the bait; the list need not be complete."}
{"binder": "Golgi-localized Gamma ear–containing adaptor–1 (GGA1) (protein, UniProt Q9UJY5 1-639) MEPAMEPETLEARINRATNPLNKELDWASINGFCEQLNEDFEGPPLATRLLAHKIQSPQEWEAIQALTVLETCMKSCGKRFHDEVGKFRFLNELIKVVSPKYLGSRTSEKVKNKILELLYSWTVGLPEEVKIAEAYQMLKKQGIVKSDPKLPDDTTFPLPPPRPKNVIFEDEEKSKMLARLLKSSHPEDLRAANKLIKEMVQEDQKRMEKISKRVNAIEEVNNNVKLLTEMVMSHSQGGAAAGSSEDLMKELYQRCERMRPTLFRLASDTEDNDEALAEILQANDNLTQVINLYKQLVRGEEVNGDATAGSIPGSTSALLDLSGLDLPPAGTTYPAMPTRPGEQASPEQPSASVSLLDDELMSLGLSDPTPPSGPSLDGTGWNSFQSSDATEPPAPALAQAPSMESRPPAQTSLPASSGLDDLDLLGKTLLQQSLPPESQQVRWEKQQPTPRLTLRDLQNKSSSCSSPSSSATSLLHTVSPEPPRPPQQPVPTELSLASITVPLESIKPSNILPVTVYDQHGFRILFHFARDPLPGRSDVLVVVVSMLSTAPQPIRNIVFQSAVPKVMKVKLQPPSGTELPAFNPIVHPSAITQVLLLANPQKEKVRLRYKLTFTMGDQTYNEMGDVDQFPPPETWGSL", "values": [{"measurement": "binding", "setting": "[1]", "value": "binds"}]}
{"binder": "PALS-1, Q8N3R9 1-675 (protein) MTTSHMNGHVTEESDSEVKNVDLASPEEHQKHREMAVDCPGDLGTRMMPIRRSAQLERIRQQQEDMRRRREEEGKKQELDLNSSMRLKKLAQIPPKTGIDNPMFDTEEGIVLESPHYAVKILEIEDLFSSLKHIQHTLVDSQSQEDISLLLQLVQNKDFQNAFKIHNAITVHMNKASPPFPLISNAQDLAQEVQTVLKPVHHKEGQELTALLNTPHIQALLLAHDKVAEQEMQLEPITDERVYESIGQYGGETVKIVRIEKARDIPLGATVRNEMDSVIISRIVKGGAAEKSGLLHEGDEVLEINGIEIRGKDVNEVFDLLSDMHGTLTFVLIPSQQIKPPPAKETVIHVKAHFDYDPSDDPYVPCRELGLSFQKGDILHVISQEDPNWWQAYREGDEDNQPLAGLVPGKSFQQQREAMKQTIEEDKEPEKSGKLWCAKKNKKKRKKVLYNANKNDDYDNEEILTYEEMSLYHQPANRKRPIILIGPQNCGQNELRQRLMNKEKDRFASAVPHTTRSRRDQEVAGRDYHFVSRQAFEADIAAGKFIEHGEFEKNLYGTSIDSVRQVINSGKICLLSLRTQSLKTLRNSDLKPYIIFIAPPSQERLRALLAKEGKNPKPEELREIIEKTREMEQNNGHYFDTAIVNSDLDKAYQELLRLINKLDTEPQWVPSTWLR", "values": [{"measurement": "binding", "setting": "[2]", "value": "binds"}, {"measurement": "binding", "setting": "[3]", "value": "binds"}]}
